Results are given in words; binding and its absence hold for the method and conditions named. Binding seen in cells or lysates may run through a third protein. Some results given as binding are weak or reduced against the parent protein; the word gives no strength.
Target: brain and muscle ARNT-like 1 (Bmal1) (mouse (endogenous in gastrocnemius)) (UniProt Q9WTL8)
Assay: co-IP; total protein of gastrocnemius of WT and Chrono TG mice; precleared with protein A/G agarose; 3 ug anti-Bmal1 in lysate with 1 mg total protein, 4 °C overnight; protein A/G agarose 4 h; washed four times with cold TNE buffer; Western blot for Chrono

Amino acid sequences for entries named in this document (tags omitted).
UniProt Q9WTL8: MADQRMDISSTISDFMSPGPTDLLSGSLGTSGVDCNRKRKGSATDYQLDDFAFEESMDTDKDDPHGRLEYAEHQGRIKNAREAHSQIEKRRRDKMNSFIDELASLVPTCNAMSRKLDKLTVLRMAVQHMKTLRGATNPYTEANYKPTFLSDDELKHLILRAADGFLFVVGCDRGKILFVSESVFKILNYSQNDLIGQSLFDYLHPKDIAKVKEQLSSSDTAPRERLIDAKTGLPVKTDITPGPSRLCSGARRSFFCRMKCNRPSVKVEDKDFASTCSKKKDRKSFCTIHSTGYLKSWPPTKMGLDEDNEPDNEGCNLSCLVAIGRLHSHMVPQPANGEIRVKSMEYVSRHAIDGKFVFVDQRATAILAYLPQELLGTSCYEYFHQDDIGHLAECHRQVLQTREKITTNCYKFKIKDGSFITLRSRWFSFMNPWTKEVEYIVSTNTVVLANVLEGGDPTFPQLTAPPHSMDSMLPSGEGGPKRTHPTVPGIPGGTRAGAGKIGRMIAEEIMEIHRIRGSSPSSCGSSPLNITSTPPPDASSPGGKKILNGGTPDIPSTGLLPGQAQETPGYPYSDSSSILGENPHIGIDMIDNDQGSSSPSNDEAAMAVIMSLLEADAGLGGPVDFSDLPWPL

B1: ChIP-derived repressor of network oscillator (Chrono) (protein, UniProt Q3TQ03 1-375)
chain: MDSPSSVSSYSSSSLSPSFSTSSVNSDFSFPSDNEREGKGTHELRPDTVGQRGGSRPSPGPIRCRHRPRVSSNQHTAPHLEQQGSEVKRSRDGEQETSLNTQGCTTEGDLLFAQKCKELQGFIRPLTDLLNGLKMGRFDRGLSSFQQSVAMDRIQRIVGVLQKPQMGERYLGTLLQVEGMLKTWFPHIAAQKSSSGGSRHQISKHFPSHHGDPGAASPAPLLEKMGQTQLGHLVLKPKQPWHLTGWPAMNLTWIHSTPICNPPLSSQGSASGHSPIGTGASIGVILVLQKGGQPFTHSAPGTPVPPTPLSPVVPGDLKKLPGEEPRCHSLPVTLPSDWSCILCPPVLPTTDREMTKGHPEPQMTSHPPVAPDPQP
- binding: binds

— article PMC9410257
